This assay concerns FaDu. In words: mitochondrial oxygen consumption rate normalised to cell number, Z score over the library; higher = higher oxygen consumption (negative = OCR reduction). Particulars: treatment time 24 h, assay medium: 5 mM galactose, 5 mM pyruvate, 4 mM glutamine. Here is the method: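 Primary screen: FaDu cells were incubated 24 h with Pharmakon 1600 / TDI oncology set compounds at 2 or 10 uM. Mitochondrial-specific OCR (basal minus 2 uM antimycin A) was measured on a Seahorse XF96 in assay medium with 5 mM galactose, 5 mM pyruvate and 4 mM glutamine, then corrected for Hoechst cell number and expressed as a Z score […]. Compounds that cut cell number by >66% were excluded. Two repeats.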

± gives the standard deviation of the averaged measurements. The list shows a part of the results, in another mix than the full data. This data set is noisy: repeats of one test often differ as much as different tests do.

In the case of `Oc1c(I)cc(I)c2cccnc12`, the “mitochondrial oxygen consumption rate normalised” value (2 µM) was -0.362 ± 0.5.
For the compound `O=C(CCCN1CC=C(n2c(=O)[nH]c3ccccc32)CC1)c1ccc(F)cc1`, the “mitochondrial oxygen consumption rate normalised” value (2 µM) was 1.24 ± 0.54.
Consider `CCN(CC)CCNC(=O)c1cc(S(C)(=O)=O)ccc1OC`, for which the “mitochondrial oxygen consumption rate normalised” value (2 µM) was 0.459 ± 1.2.
Still for that read-out and setting: in the case of `C[C@H]1[C@@H](O)O[C@@H]2O[C@@]3(C)CC[C@H]4[C@H](C)CC[C@@H]1[C@@]24OO3` it was -0.223 ± 0.058; in that of `CCn1cc(C(=O)O)c(=O)c2ccc(C)nc21`, 0.76 ± 0.77.
`O=C(O)CCC(=O)OC[C@@H](NC(=O)C(Cl)Cl)[C@H](O)c1ccc([N+](=O)[O-])cc1`: the “mitochondrial oxygen consumption rate normalised” value by setting is: (2 µM) -3.29 ± 0.069; (10 µM) -1.19 ± 0.7.
Turning to `COc1ccc2cc(CCC(C)=O)ccc2c1`, the “mitochondrial oxygen consumption rate normalised” value (2 µM) is -0.171 ± 1.7.
Same read-out and setting: in the case of `CCCCCC(C)N` (stereo not given) it was 0.0701 ± 0.19.
On the same count and under the same terms, in the case of `C#CCN(C)Cc1ccccc1` it was -0.275 ± 0.29; in that of `CC(=O)N[C@@H](CC(=O)N[C@@H](CCC(=O)O)C(=O)O)C(=O)O`, -0.19 ± 0.48; in that of `Cc1ccc(S(=O)(=O)NC(=O)NN2CC3CCCC3C2)cc1` (stereo not given), 0.427 ± 0.53.
Same read-out and setting: in the case of `NCCS(=O)(=O)O` it was -0.442 ± 0.2; in that of `COc1cc2nc(N3CCN(C(=O)c4ccco4)CC3)nc(N)c2cc1OC`, 0.0936 ± 0.067.
For `CCn1cc(C(=O)O)c(=O)c2cnc(N3CCNCC3)nc21`, under “2 µM”, the “mitochondrial oxygen consumption rate normalised” value is -0.871 ± 0.019.
Consider `O=C([O-])c1ccccc1O.[Na+]`, for which the “mitochondrial oxygen consumption rate normalised” value (2 µM) is -0.35 ± 0.078.
Turning to `NC[C@H]1O[C@H](O[C@H]2[C@H](O[C@@H]3O[C@H](CO)[C@@H](O)[C@H]3O)[C@@H](O)[C@H](N)C[C@@H]2N)[C@H](N)[C@@H](O)[C@@H]1O`, the “mitochondrial oxygen consumption rate normalised” value (2 µM) is 0.141 ± 0.2 and the “mitochondrial oxygen consumption rate normalised” value (10 µM) amounted to 0.994 ± 0.3.
With `C=CC[C@@H]1/C=C(\C)C[C@H](C)C[C@H](OC)[C@H]2O[C@@](O)(C(=O)C(=O)N3CCCC[C@H]3C(=O)O[C@H](/C(C)=C/[C@@H]3CC[C@@H](O)[C@H](OC)C3)[C@H](C)[C@@H](O)CC1=O)[C@H](C)C[C@@H]2OC`, where the note is “2 µM”, the “mitochondrial oxygen consumption rate normalised” value was found to be 1.24 ± 1.2.
On to `CCN(CC)CC#CCOC(=O)C(O)(c1ccccc1)C1CCCCC1` (stereo not given), for which the “mitochondrial oxygen consumption rate normalised” value (2 µM) worked out at 0.27 ± 0.37.
The same measure, in the same setting: in the case of `Cc1ncc([N+](=O)[O-])n1CCO` it was -0.158 ± 0.21; in that of `OC(CCN1CCCCC1)(c1ccccc1)C1CC2C=CC1C2` (stereo not given), 0.109 ± 0.032; in that of `CCN(Cc1ccncc1)C(=O)C(CO)c1ccccc1` (stereo not given), 0.49 ± 0.33.
`CC(C)N1CCN(c2ccc(OCC3COC(Cn4cncn4)(c4ccc(Cl)cc4Cl)O3)cc2)CC1` (stereo not given): the “mitochondrial oxygen consumption rate normalised” value (2 µM) was found to be 0.137 ± 0.41.
For the compound `CN1C2CCCC1CC(NC(=O)c1nn(C)c3ccccc13)C2` (stereo not given), the “mitochondrial oxygen consumption rate normalised” value (2 µM) came out at 0.817 ± 0.43.
Still for that read-out and setting: in the case of `CO[C@@H]1[C@@H](OC(N)=O)[C@@H](O)[C@H](Oc2ccc3c(O)c(NC(=O)c4ccc(O)c(CC=C(C)C)c4)c(=O)oc3c2C)OC1(C)C` it was 0.586 ± 0.28; in that of `CCN1CCN(C(=O)N[C@@H](C(=O)N[C@@H]2C(=O)N3[C@@H]2SC(C)(C)[C@@H]3C(=O)O)c2ccccc2)C(=O)C1=O`, 0.18 ± 1.1.
Take `CC(=O)Oc1cccc(O)c1`: the “mitochondrial oxygen consumption rate normalised” value is, setting by setting: (2 µM) 0.0871 ± 2.2; (10 µM) 0.689 ± 0.62.
Turning to `CN1CCCC(n2nc(Cc3ccc(Cl)cc3)c3ccccc3c2=O)CC1` (stereo not given), for the setting “2 µM”, the “mitochondrial oxygen consumption rate normalised” value was -0.645 ± 0.55.
The same measure, in the same setting: in the case of `O=C(CNC(=O)c1ccc(Cl)cc1)NO` it was -0.322 ± 0.45; in that of `CN(C)CCC[C@@]1(c2ccc(F)cc2)OCc2cc(C#N)ccc21`, 0.152 ± 0.066; in that of `CCCC(=O)Nc1ncnc2c1ncn2[C@@H]1O[C@@H]2COP(=O)(O)O[C@H]2[C@H]1OC(=O)CCC`, -0.648 ± 0.33.
For `CC1=CC(=O)NS(=O)(=O)O1`, the “mitochondrial oxygen consumption rate normalised” value (2 µM) is -0.535 ± 1.
Same read-out and setting: in the case of `NC(=O)N/N=C/c1ccc([N+](=O)[O-])o1` it was -1.2 ± 0.83; in that of `O=C(O[C@H]1CN2CCC1CC2)N1CCc2ccccc2[C@@H]1c1ccccc1`, -0.199 ± 0.37.
As for `Cc1ncc(CSSCc2cnc(C)c(O)c2CO)c(CO)c1O`, the “mitochondrial oxygen consumption rate normalised” value (2 µM) was -0.515 ± 0.18.
On the same count and under the same terms, in the case of `CC(=O)Oc1cccc2c1C(=O)c1c(OC(C)=O)cc(C(=O)O)cc1C2=O` it was -0.673 ± 0.13.
`N=C(N)NC(=N)N1CCOCC1`: the “mitochondrial oxygen consumption rate normalised” value (2 µM) was -0.189 ± 0.45.
On to `C=C1C[C@H]2[C@@H]3C=C(C)C4=CC(=O)CC[C@]4(C)[C@H]3CC[C@]2(C)[C@@]1(OC(C)=O)C(C)=O`, for which the “mitochondrial oxygen consumption rate normalised” value (2 µM) came out at 0.0119 ± 0.37.
Same read-out and setting: in the case of `N[C@H]1C(O)O[C@H](CO)[C@@H](O)[C@@H]1O` (stereo not given in full) it was -0.741 ± 1.4; in that of `OCCN1CCN(CCCN2c3ccccc3Sc3ccc(Cl)cc32)CC1`, -0.731 ± 1.3; in that of `Nc1ccc(S(=O)(=O)c2ccc(N)cc2)cc1`, 0.255 ± 1.2.
On the same count and under the same terms, in the case of `Nc1ccc(C(=O)NCC(=O)O)cc1` it was 0.751 ± 0.43; in that of `COc1ccc(NS(=O)(=O)c2ccc(N)cc2)nn1`, -0.198 ± 0.81.
As for `Cn1nnnc1SCC1=C(C(=O)O)N2C(=O)[C@@H](NC(=O)[C@H](O)c3ccccc3)[C@H]2SC1`, the “mitochondrial oxygen consumption rate normalised” value reads like this: (2 µM) 0.541 ± 0.039; (10 µM) 0.376 ± 0.31.
For `CCC[C@H](N[C@@H](C)C(=O)N1[C@H](C(=O)O)C[C@@H]2CCCC[C@@H]21)C(=O)OCC`, under “2 µM”, the “mitochondrial oxygen consumption rate normalised” value came to 0.637 ± 0.94.
On to `N=C(N)NCC1COC2(CCCCC2)O1` (stereo not given), for which the “mitochondrial oxygen consumption rate normalised” value (2 µM) worked out at 0.201 ± 0.017.
Take `CC1(C)OC(=O)NC1=O`: the “mitochondrial oxygen consumption rate normalised” value (2 µM) was -0.838 ± 0.56.
The same measure, in the same setting: in the case of `Cc1scc2c1N(C(=O)CN1CCN(C)CC1)c1ccccc1NC2=O` it was -0.583 ± 0.41.
Still for that read-out and setting: in the case of `c1ccc(C2CN3CCSC3=N2)cc1` (stereo not given) it was 0.695 ± 0.14; in that of `C=C1c2cccc(O)c2C(=O)C2=C(O)[C@]3(O)C(=O)C(C(N)=O)=C(O)[C@@H](N(C)C)[C@@H]3[C@@H](O)[C@H]12`, -0.773 ± 0.65; in that of `Cn1c(=O)c2nc[nH]c2n(C)c1=O`, 0.969 ± 0.13.
In the case of `Cc1nc2ccccc2n1Cc1ccc(Cl)cc1`, the “mitochondrial oxygen consumption rate normalised” value (2 µM) is -0.463 ± 0.92.

Values taken from the supplement of paper PMC4962491.
